By UniProt entry, the sequences of proteins in these tests, tags left out. Residues count along the entry.
UniProt P08581, 25-1390 limits assumed: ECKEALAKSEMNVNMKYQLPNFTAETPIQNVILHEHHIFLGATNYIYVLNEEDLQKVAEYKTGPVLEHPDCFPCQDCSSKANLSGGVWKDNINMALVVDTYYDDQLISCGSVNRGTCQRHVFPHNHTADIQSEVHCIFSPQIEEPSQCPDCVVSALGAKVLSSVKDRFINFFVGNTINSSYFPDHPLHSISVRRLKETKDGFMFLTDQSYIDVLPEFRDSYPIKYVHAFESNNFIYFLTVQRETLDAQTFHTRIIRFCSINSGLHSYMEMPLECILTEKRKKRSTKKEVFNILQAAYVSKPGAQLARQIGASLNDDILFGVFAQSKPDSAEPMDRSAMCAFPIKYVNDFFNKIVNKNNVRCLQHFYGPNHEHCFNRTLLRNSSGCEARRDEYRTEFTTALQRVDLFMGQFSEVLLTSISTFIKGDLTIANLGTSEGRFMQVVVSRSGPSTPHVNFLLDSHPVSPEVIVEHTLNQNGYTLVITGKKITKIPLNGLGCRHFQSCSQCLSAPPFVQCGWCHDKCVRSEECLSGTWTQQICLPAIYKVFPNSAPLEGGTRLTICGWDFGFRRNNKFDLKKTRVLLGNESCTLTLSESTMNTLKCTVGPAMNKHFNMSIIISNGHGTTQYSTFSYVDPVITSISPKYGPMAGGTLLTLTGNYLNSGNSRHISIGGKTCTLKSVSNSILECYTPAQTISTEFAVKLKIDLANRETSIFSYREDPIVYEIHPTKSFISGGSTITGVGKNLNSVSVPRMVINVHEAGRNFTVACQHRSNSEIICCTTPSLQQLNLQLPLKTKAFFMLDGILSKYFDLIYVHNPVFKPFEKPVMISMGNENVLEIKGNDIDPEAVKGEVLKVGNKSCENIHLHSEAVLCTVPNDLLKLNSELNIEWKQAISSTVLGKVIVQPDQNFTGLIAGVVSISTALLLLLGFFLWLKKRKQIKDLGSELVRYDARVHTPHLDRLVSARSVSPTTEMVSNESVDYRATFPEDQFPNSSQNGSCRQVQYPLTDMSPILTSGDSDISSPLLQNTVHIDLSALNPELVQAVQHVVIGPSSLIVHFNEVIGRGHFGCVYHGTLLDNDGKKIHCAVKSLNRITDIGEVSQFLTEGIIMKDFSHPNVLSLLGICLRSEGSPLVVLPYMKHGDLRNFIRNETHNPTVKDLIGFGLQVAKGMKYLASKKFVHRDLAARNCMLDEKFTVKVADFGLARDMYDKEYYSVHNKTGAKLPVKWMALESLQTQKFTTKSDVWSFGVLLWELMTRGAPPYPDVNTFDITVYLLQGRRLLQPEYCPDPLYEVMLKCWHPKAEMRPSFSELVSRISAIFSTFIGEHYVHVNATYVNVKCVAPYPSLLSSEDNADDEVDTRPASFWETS

In patent US7998987B2, “Inhibitors of c-Met and uses thereof” (Vertex Pharmaceuticals Incorporated, priority 2005, dated 2011):

The compounds below were run against c-Met (Homo sapiens, UniProt P08581) (assay: Ki determination for the inhibition of c-Met kinase activity (standard coupled enzyme system)). Conditions: read-out: c-Met Ki, 200 μM ATP, 10 μM polyGluTyr, 80 nM c-Met, 30° C.
C[C@H](c1ccc(O)cc1)c1nnc2sc(Nc3ccc(F)c(Cl)c3)nn12 was tested, and the Ki was < 100 nM. For Oc1cccc(CCc2nnc3sc(Nc4cccc(C(F)(F)F)c4)nn23)c1, the Ki was 100 to 2000 nM. With FC(F)(F)c1cccc(Nc2nn3c(Cc4ccc5c(c4)OCO5)nnc3s2)c1 the Ki was < 100 nM. For Cc1cccc(Nc2nn3c(Cc4ccc(O)c(Cl)c4)nnc3s2)c1, the Ki was > 2000 nM. With COc1ccc(C(C)c2nnc3sc(Nc4ccc(Cl)cc4)nn23)cc1 (stereo not shown) the Ki was < 100 nM. CC(c1ccc(O)cc1)c1nnc2sc(Nc3cccc(C(F)(F)F)c3)nn12 (stereo not shown) [Compound 138] was tested, and the Ki was < 100 nM. Oc1ccc(Cc2nnc3sc(Nc4cccc(C(F)(F)F)c4)nn23)cc1F was tested, and the Ki was < 100 nM. Work on Cc1cccc(Nc2nn3c(Cc4cccc(O)c4)nnc3s2)c1 yielded a Ki of 100 to 2000 nM. Fc1ccc(Nc2nn3c(Cc4ccc5c(c4)OCO5)nnc3s2)cc1Cl was tested, and the Ki was < 100 nM. With Oc1ccc(CCc2nnc3sc(Nc4cccc(C(F)(F)F)c4)nn23)cc1 the Ki was < 100 nM. For Cc1cccc(Nc2nn3c(CCc4ccc(O)cc4)nnc3s2)c1, the Ki was 100 to 2000 nM. In the case of Oc1ccc(Cc2nnc3sc(Nc4ccc(F)c(Cl)c4)nn23)cc1, the Ki is reported as 100 to 2000 nM. With Cc1cccc(Nc2nn3c(Cc4ccc5c(c4)OCO5)nnc3s2)c1 the Ki was < 100 nM. With Oc1ccc(Cc2nnc3sc(Nc4cccc(C(F)(F)F)c4)nn23)cc1Cl the Ki was 100 to 2000 nM. For Cc1cccc(Nc2nn3c(Cc4ccc(O)c(F)c4)nnc3s2)c1, the Ki was < 100 nM. For C[C@@H](c1ccc(O)cc1)c1nnc2sc(Nc3cccnc3)nn12, the Ki was < 100 nM.

The structures given here were assigned with low confidence; some may be wrong.
